From PubChem BioAssay AID1347076 (National Center for Advancing Translational Sciences (NCATS), 2019)
Hit rate of the full screen: of about 400,000 compounds, about 13,000 (3.2%) were called active. Inconclusive means that the source gave no clear call. Such entries were picked first, then a sample of the others. Calls come from the whole dose curve; as a rule, active = well fitted cell-killing curve with a large enough effect; inconclusive = small, poorly fitted or top-dose-only effect, or effect the other way; inactive = flat fitted curve, though single readings scatter. Potencies beside an inconclusive call are fits to weak or partial responses and may not hold up.

Experiment: qHTS assay for MDR1-selective chemotherapeutics: Primary screen using the drug-selected MDR subline cells KB-V1; note: nearly all actives have a fitted effect of over 60% in size
Conditions: KB-V1 MDR cells viability, CellTiter-Glo, 72 h; activity change, negative = cytotoxicity: at 46.1 µM (top of the series)
Outline: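 Luminescent ATP read-out (CellTiter-Glo, 10 min) measures survival of drug-selected KB-V1 MDR cells after 72 h, 37 degrees C compound exposure. Medium: phenol-red-free DMEM, 10% FBS. Values from fitted concentration-response curves.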
% is set by controls: 0 for no effect and ±100 for the full control effect; potency is the fitted concentration of half-maximal effect.

Question: For O=S(=O)(c1cccs1)N1CCN(c2ccccc2F)CC1, which Potency is on record?
Answer: Its Potency is inconclusive: 20.6 µM [cytotoxic, single point].

Question: Which Potency does the source give for CC1CCN(S(=O)(=O)c2ccc3c(c2)c(=O)c(C(=O)NC2CCCC2)cn3C)CC1 here?
Answer: Its Potency is inconclusive: 0.411 µM [cytotoxic, full curve].

Question: For CC(=O)Nc1cc(O)c2nonc2c1O, which Potency is on record?
Answer: Its Potency is inconclusive: 18.4 µM [cytotoxic, single point].

Question: Which “activity change, negative = cytotoxicity” value does the source give for CC(C)=C(NC(=O)c1ccccc1Cl)C(=O)NCCc1nc2ccccc2[nH]1 here?
Answer: Its value is inactive: 17.6%.

Question: Which “activity change, negative = cytotoxicity” value does the source give for C=CCn1c(SCC(=O)NCc2ccc3c(c2)OCO3)nc2scc(-c3ccc(F)cc3)c2c1=O here?
Answer: The value was inactive: -1.22%.

Question: Which Potency does the source give for C[C@H](CO)N1C[C@H](C)[C@@H](CN(C)C(=O)Nc2ccc3c(c2)OCCO3)OCc2cnnn2CCCC1=O here?
Answer: The Potency was inconclusive: 29.1 µM [rising, single point].

Question: Which Potency does the source give for COc1ccc(S(=O)(=O)NCCC(C)C)cc1OC here?
Answer: The Potency was inconclusive: 29.1 µM [cytotoxic, single point].

Question: For Cc1ccc(C(=O)NCCCNC(=O)COc2ccccc2Cl)cn1, which “activity change, negative = cytotoxicity” value is on record?
Answer: Its value is inactive: -0.305%.

Question: For COc1ccc(C2CC(=O)N3CN(C4CCCCC4)CSC3=C2C#N)cc1 (stereo not drawn), which Potency is on record?
Answer: Its Potency is inconclusive: 29.1 µM [rising, single point].

Question: Which Potency does the source give for COCCNC(=O)COC(=O)/C=C/c1c(C)nn(Cc2ccc(Cl)cc2Cl)c1Cl here?
Answer: Its Potency is inconclusive: 14.6 µM [cytotoxic, single point].

Question: For COc1ccc(CCN(Cc2cc3cccc(C)c3[nH]c2=O)C(=O)NC2CCCCC2)cc1OC, which Potency is on record?
Answer: The Potency was inconclusive: 6.51 µM [cytotoxic, full curve].

Question: For O=C1C2C3c4ccccc4C(c4ccccc43)C2C(=O)N1/N=C/c1cccc(O)c1 (stereo not drawn), which Potency is on record?
Answer: Its Potency is inconclusive: 29.1 µM [rising, single point].

Question: Which Potency does the source give for CC(C)(C)NC(=O)CN(C(=O)C(=O)Nc1ccc2c(c1)OCCO2)C1CCCC1 here?
Answer: Its Potency is inconclusive: 18.4 µM [cytotoxic, single point].

Question: For COc1ccc2c(c1)C(=O)N(c1ccc(C)cc1C)C(=O)C2, which “activity change, negative = cytotoxicity” value is on record?
Answer: Its value is inactive: -13%.

Question: For O=C(c1cc2ccccc2oc1=O)N1CCN(CCc2ccccc2)CC1, which Potency is on record?
Answer: Its Potency is inconclusive: 20.6 µM [cytotoxic, partial curve, poor fit].

Question: Which Potency does the source give for O=C(OC(C(=O)Nc1ccc([N+](=O)[O-])cc1Br)c1ccccc1)c1ccccc1 (stereo not drawn) here?
Answer: Its Potency is inconclusive: 20.6 µM [cytotoxic, single point].

Question: Which “activity change, negative = cytotoxicity” value does the source give for CCCC(=O)NC(c1ccc(N(C)C)cc1)c1ccc2cccnc2c1O (stereo not drawn) here?
Answer: Its value is inactive: -9.29%.

Question: For CC(C)C(NS(=O)(=O)c1cccs1)C(=O)N1CCc2ccccc2C1 (stereo not drawn), which Potency is on record?
Answer: Its Potency is inconclusive: 18.4 µM [cytotoxic, partial curve].
